Results from article PMC4244159.
Results are given in words; binding and its absence hold for the method and conditions named. Binding seen in cells or lysates may run through a third protein. Some entries that bind do so weakly or less than the wild type.

The chains behind the UniProt entries cited, without tags or fusion partners.
UniProt Q15796: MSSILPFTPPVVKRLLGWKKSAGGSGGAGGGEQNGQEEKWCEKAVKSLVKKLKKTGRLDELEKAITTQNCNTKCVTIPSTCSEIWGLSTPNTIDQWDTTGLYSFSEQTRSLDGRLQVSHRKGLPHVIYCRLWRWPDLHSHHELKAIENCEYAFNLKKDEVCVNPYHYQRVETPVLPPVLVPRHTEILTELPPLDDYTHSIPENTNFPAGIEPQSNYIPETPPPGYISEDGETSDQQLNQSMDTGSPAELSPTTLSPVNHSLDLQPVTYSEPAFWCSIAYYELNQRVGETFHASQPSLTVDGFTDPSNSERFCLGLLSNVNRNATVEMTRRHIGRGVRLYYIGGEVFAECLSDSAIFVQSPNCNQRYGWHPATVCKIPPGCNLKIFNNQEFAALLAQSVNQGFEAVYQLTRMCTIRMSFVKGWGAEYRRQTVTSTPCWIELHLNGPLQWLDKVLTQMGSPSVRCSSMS
UniProt P84022: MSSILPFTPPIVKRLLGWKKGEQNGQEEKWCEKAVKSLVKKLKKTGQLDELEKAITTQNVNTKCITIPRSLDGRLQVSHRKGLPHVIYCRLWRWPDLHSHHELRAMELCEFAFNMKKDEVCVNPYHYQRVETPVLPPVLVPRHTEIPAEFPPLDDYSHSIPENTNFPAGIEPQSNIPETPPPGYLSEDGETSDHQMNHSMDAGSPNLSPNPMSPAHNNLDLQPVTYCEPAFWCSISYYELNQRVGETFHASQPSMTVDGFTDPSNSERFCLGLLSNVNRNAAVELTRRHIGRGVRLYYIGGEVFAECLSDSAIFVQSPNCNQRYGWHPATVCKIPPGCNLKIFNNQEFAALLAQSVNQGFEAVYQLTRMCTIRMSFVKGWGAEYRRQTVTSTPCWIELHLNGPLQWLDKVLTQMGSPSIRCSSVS
UniProt Q13485: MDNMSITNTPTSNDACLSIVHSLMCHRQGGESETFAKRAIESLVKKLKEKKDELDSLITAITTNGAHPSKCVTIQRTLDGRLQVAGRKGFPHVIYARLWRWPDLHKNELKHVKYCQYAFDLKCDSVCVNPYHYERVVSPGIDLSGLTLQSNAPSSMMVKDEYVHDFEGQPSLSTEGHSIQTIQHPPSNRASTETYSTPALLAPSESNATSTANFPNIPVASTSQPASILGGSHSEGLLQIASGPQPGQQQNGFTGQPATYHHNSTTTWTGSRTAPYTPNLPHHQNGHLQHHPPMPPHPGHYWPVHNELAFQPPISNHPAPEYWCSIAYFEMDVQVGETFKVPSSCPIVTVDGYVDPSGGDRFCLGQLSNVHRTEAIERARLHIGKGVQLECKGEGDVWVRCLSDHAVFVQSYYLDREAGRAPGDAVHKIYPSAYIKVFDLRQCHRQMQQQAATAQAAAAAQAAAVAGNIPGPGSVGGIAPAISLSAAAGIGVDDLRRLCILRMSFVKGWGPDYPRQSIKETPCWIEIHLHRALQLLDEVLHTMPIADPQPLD
UniProt P97471: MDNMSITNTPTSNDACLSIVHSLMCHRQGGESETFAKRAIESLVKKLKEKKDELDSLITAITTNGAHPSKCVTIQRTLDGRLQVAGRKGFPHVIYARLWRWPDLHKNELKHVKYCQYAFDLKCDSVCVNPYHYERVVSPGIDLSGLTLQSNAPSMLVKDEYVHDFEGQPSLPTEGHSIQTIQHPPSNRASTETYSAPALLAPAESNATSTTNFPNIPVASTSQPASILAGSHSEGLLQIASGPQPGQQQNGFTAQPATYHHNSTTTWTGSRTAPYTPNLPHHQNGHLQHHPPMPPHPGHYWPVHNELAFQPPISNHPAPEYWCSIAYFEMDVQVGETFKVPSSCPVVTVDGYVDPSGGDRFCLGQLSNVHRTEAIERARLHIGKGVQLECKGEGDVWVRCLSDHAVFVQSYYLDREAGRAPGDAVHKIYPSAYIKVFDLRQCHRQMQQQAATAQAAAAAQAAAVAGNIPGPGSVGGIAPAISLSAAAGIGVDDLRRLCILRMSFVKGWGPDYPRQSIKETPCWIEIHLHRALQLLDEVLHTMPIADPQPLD
UniProt Q12778: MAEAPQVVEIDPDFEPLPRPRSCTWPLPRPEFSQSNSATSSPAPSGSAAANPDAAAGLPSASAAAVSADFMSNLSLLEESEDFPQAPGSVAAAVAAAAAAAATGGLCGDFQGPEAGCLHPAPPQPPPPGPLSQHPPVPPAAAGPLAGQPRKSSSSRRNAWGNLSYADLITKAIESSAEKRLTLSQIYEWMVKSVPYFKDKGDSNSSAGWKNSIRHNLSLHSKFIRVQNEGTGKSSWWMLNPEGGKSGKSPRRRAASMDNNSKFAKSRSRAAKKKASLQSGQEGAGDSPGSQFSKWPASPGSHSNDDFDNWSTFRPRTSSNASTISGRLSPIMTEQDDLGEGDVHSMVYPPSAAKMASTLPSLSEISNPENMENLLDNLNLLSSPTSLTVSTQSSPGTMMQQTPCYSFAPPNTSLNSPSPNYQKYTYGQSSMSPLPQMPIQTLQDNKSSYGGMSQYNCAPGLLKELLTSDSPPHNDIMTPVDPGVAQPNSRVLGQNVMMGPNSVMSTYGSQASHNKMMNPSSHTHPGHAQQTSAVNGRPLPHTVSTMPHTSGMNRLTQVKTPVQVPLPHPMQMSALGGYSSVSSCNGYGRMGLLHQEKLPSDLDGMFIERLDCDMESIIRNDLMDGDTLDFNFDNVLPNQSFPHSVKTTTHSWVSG
UniProt Q9R1E0: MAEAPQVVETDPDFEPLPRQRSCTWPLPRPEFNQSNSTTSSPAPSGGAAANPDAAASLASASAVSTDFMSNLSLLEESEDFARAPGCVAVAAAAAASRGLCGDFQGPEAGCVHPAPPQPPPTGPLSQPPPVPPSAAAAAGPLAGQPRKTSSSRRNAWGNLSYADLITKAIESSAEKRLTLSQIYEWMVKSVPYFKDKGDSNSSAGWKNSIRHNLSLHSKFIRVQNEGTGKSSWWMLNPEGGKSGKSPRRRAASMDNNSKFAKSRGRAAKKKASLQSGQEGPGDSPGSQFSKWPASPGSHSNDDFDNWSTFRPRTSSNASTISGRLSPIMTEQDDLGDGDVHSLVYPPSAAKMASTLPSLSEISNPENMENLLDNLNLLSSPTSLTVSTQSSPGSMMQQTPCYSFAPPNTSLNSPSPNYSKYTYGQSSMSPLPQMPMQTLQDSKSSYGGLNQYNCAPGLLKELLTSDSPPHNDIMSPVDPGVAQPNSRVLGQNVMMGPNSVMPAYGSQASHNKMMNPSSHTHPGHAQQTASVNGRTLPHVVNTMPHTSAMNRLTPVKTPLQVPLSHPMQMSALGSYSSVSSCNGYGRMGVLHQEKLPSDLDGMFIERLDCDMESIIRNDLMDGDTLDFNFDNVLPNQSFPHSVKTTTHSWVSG

Experiments:
[1] = molecular target: GST-SMAD2 (UniProt Q15796); assay: pull-down; GST or GST-SMAD2/3/4 on glutathione sepharose 4B beads; 20 µl 35S-labeled in vitro transcribed and translated protein in 400 µl HND buffer (10 mg/ml BSA, 20 mM Hepes pH 7.8, 50 mM NaCl, 5 mM DTT, 0.1% NP-40), overnight at 4°C; washed with HND buffer and 0.1% NP-40 in PBS; 10% SDS-PAGE; only the target purified
[2] = molecular target: GST-SMAD3 (UniProt P84022); assay: as above
[3] = molecular target: GST-SMAD4 (UniProt Q13485); assay: as above
[4] = molecular target: endogenous SMAD4 in LβT2 gonadotrope cells (mouse (endogenous in LβT2)) (UniProt P97471); assay: co-IP; endogenous proteins; 400 µg pre-cleared nuclear extract of LβT2 cells treated with or without 10 ng/mL activin for 2 h; SMAD4 or SMAD2/3 antibody or mouse IgG, Protein A magnetic beads, overnight at 4°C; Western blot for SMAD4, SMAD2/3 and FOXO1

In the case of “FOXO1 (human, wild type), ^35S-labeled, in vitro transcribed and translated (from UniProt Q12778 1-655)”, the binding [1] is reported as “no binding”, the binding [2] is reported as “binds” and the binding [3] is reported as “binds”.

With “endogenous FOXO1 in LβT2 gonadotrope cells (from UniProt Q9R1E0 1-652)” the binding [4] was “binds”.
